Library screen at single concentrations

Source: ChEMBL document CHEMBL3988442, “University of Dundee, Small-Polar-MMV Screening Library” (2021).

Each number is a percent effect as filed. How 0% and 100% were set is not recorded. Most values in the screen are low, and negative values occur. Compounds were drawn at random from those tested, without regard to their results. Two or more numbers in one place are separate tests of the same structure; such repeats can differ widely.

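Whole-cell growth test on Mycobacterium tuberculosis, read after 3 days in glucose-containing 7H9 medium; the read-out is not stated. Concentration: 50 µM. Direction is inferred from retests: higher values go with more growth inhibition. About 69,000 compounds were tested under these conditions; 1.1% (about 760) showed 50% or more at least once.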

CN1[C@H](CO)C[C@H](CNCc2ccc(CO)o2)[C@@H]1c1ccccc1F read 48.43%.
CCc1noc(C)c1C(=O)N1CCC2(CCCN(CC(C)(C)C)C2=O)C1 (stereo not given) read -6.691%.
OCC1CCCCN1Cc1nc(Cc2cccc(F)c2)no1 (stereo not given) read 40.66% & 8.212%.
COc1cccc(OC)c1C(C(=O)O)N(C)Cc1c(C)n[nH]c1C (stereo not given) read -28.1%.
O=C(NCCC1=CCCCC1)NC1CCCc2c1cnn2CCO (stereo not given) read 11.77%.
Cc1nc(CN2Cc3nccn3CC(COCC3CC3)C2)cs1.O=C(O)C(F)(F)F (stereo not given) read -2.308% & 0.6699%.
O=C(CCc1ccncc1)N1CCc2c(ncnc2N2CCOCC2)C1 read -84.26%.
CC(C)N(C(=O)CN(C)C1CCc2ccccc21)C(C)C (stereo not given) read 7.46%.
FC(F)(F)CCc1ccnc(N[C@H]2CC[C@H](n3cnnc3)CC2)n1 read -12.33%.
[H][C@@]12C[C@H](C)O[C@]1([H])CCN(C(=O)CCOC)C2 read -10.84%.
NC(=O)NC(=O)CNc1cccc(C(=O)c2ccccc2)c1 read -23.69%.
COc1ccc2c(c1)CN(Cc1nc3c(cnn3C)c(=O)[nH]1)CC2 read 15.99%.
O=C(NCCNC1CCCC1)c1cccs1 read 18.82%.
COc1ccc(S(=O)(=O)N2CCC(O)(CN(C)C)C2)cc1 (stereo not given) read 16.15%.
O=C(CC1COCCN1)NCCc1nc(Cc2ccccc2)no1 (stereo not given) read -52.93%.
Cn1cccc1-c1cc(C(=O)N2CCCC2c2cccnc2)[nH]n1 (stereo not given) read 12.09%.
Cc1cnn(CCCn2ncc(N3CCC(CN)C3)cc2=O)c1 (stereo not given) read -23.85%.
CO[C@@H]1CN(c2ccccc2)S(=O)(=O)[C@@]12CCN(C(C)=O)C2 read 28.67%.
O=c1cc(C2CCNCC2)nc(CCc2ccccn2)[nH]1 read 28.13%.
CS(=O)(=O)N1Cc2nc(C(=O)NCc3ccccc3)oc2C1 read 6.16% & -12.69%.
COc1cccc(C2CCCN2C(=O)c2cc3c([nH]c2=O)CCC3)c1 (stereo not given) read 26.8%.
[H][C@@]12COC[C@]1(CNS(C)(=O)=O)CN(C(=O)C1CCCCC1)C2 read 4.229%.
Cc1ccc(CN2CCc3ncnc(-c4cccnc4)c3CC2)o1.O=C(O)C(F)(F)F.O=C(O)C(F)(F)F read 0.5311%.
Cc1cc(C(=O)N2CCCC2)ccc1NS(C)(=O)=O read -18.31%.
O=C(c1ccncc1)N1CCCC(c2ncncc2-c2ccncc2)C1 (stereo not given) read 2.167%.
Cc1cc(-c2cnc(N3CCCC(C)C3)nc2-c2cccnc2C)on1.Cl (stereo not given) read -3.675%.
Cc1nc(CN(C)C(=O)C2CC(=O)N(c3cccc(O)c3)C2)cs1 (stereo not given) read -31.49%.
O=C(O)CCc1cn(C2CCN(c3ncccc3Cl)CC2)nn1 read 7.434%.
Cc1ccc(S(=O)(=O)CCC(=O)NCc2nnc3n2CCC3)cc1 read -21.98%.
[H][C@]12CC[C@]([H])(CN(Cc3cccnc3)C1)N(C(=O)Nc1ccc(F)cc1)C2 read 0.2927% & 3.418%.
CCn1ncc(C(=O)NCCc2nc(-c3ccc(C)cc3)n[nH]2)c1C read 21.29%.
Cc1nc(C)c2c(n1)CCN(Cc1ccsc1)CC2 read 3.662% & 26.6%.
O=C(NCc1ccc(Br)cc1F)C1(O)CCSCC1 read 31.04%.
COC(=O)c1cccn1C1CCN(C(=O)c2cc(F)ccc2C)CC1 read 15.69%.
COc1cc(N2CCOC(c3ccc(F)cc3)C2)ncn1 (stereo not given) read 18.42%.
[H][C@]12CC[C@]([H])(CN(C3Cc4ccccc4C3)C1)N(C(=O)CO)C2 read 30.86%.
CCc1cc(CNC(=O)Nc2cc(F)cc(N3CCCC3)c2)on1 read 18.43%.
CCC(CNS(N)(=O)=O)Oc1ccccc1F (stereo not given) read -2.456%.
COc1ccc(C[C@H]2CN(C(=O)c3ncccn3)CC[C@@H]2OC)cc1 read -4.602%.
CN(c1ccncn1)C1CC2(CCN(C(=O)Cc3cccs3)C2)C1 (stereo not given) read 30.23%.
CN(C)Cc1cc(CC2(NCc3ccc(C#N)cc3)COC2)no1 read -0.2635% & -3.12%.
CC(C)NC(=O)c1cc2c([nH]c1=O)CC(c1cccs1)CC2=O (stereo not given) read 1.794%.
O=C(CN1CCc2cncnc2C1)NCCOc1ccccc1 read -16.14%.
CCS(=O)(=O)N1CCCC(c2nccn2Cc2ccccn2)C1 (stereo not given) read 20.17%.
COc1c(CNC(c2ccc(F)cc2)c2nccn2C)c(C)nn1C (stereo not given) read -9.626%.
CC(C)(C)CC(=O)NC[C@H]1OC[C@@H](NCc2ccccn2)[C@@H]1O read -9.171% & -1.86%.
COCc1cccc(C(=O)N2CCCCC2c2nccs2)c1 (stereo not given) read 17.21%.
O=S(=O)(CCOc1ccc(F)cc1)Nc1cnn(CC(F)F)c1 read 22.38% & 1.319%.
CC(C)Cc1nc(CN2CCC(NC(=O)c3cccs3)CC2)no1 read 7.82%.
O=C(O)C(F)(F)F.[H][C@@]12CC(=O)N(CC(=O)N(C)C)[C@@]1([H])CCN2Cc1cccc(C#N)c1 read -28.51%.
O=C(O)C(F)(F)F.[H][C@]12CN(Cc3csc(C)n3)C(=O)[C@@]1([H])CN(c1ncc(F)cn1)C2 read 17.63% & 10.78%.
COC(=O)c1ccc2c(-c3ccnc(NCCO)n3)c[nH]c2c1 read 4.205%.
O=C1OC2(CCNCC2)CN1CC(=O)N1CCC1c1cccs1 (stereo not given) read 6.002% & 16.14%.
Cc1cc(F)ccc1S(=O)(=O)NCC(O)c1cccn1C (stereo not given) read 1.468% & 3.235%.

6 of the entries, repeated:

| SMILES | Percent Effect |
|---|---|
| `CC(C)NC(=O)c1cc2c([nH]c1=O)CC(c1cccs1)CC2=O` (stereo not given) | 1.794% |
| `COc1cc(N2CCOC(c3ccc(F)cc3)C2)ncn1` (stereo not given) | 18.42% |
| `COCc1cccc(C(=O)N2CCCCC2c2nccs2)c1` (stereo not given) | 17.21% |
| `O=C(O)CCc1cn(C2CCN(c3ncccc3Cl)CC2)nn1` | 7.434% |
| `COc1cccc(C2CCCN2C(=O)c2cc3c([nH]c2=O)CCC3)c1` (stereo not given) | 26.8% |
| `COC(=O)c1ccc2c(-c3ccnc(NCCO)n3)c[nH]c2c1` | 4.205% |